# Assay results: patent publication US11351270B2, “Junctophilin-2 fragments and uses therefor” (University of Iowa Research Foundation, priority 2016, dated 2022)
# At least one compound was matched to its structure with a doubt left. Peptide text beside a SMILES is read from it. * marks the point of attachment. Cbz = O=C(OCc1ccccc1)*
# Experiments:
# [1] = tested on: JP2 expression in WT murine left ventricles; test: In vitro I/R injury in Langendorff-perfused mouse hearts, JP2 Western blot; conditions: MDL-28170 10 μM, 10 minutes before ischemia and after onset of reperfusion
# nuclear JP2NT = test: Chronic cardiac stress models (isoproterenol infusion, myocardial infarction), nuclear JP2NT Western blot; format: in vivo, mouse; conditions: isoproterenol infusion (1 week) and myocardial infarction (1 week)
smiles,measurement,setting,value
CC(C)[C@H](NC(=O)OCc1ccccc1)C(=O)N[C@H](C=O)Cc1ccccc1 [MDL-28170] (Cbz-Val-Phe-aldehyde),"JP2 down-regulation after I/R injury (JP2 protein, Western blot)",[1],attenuated
same,stress-induced elevation in nuclear JP2NT,nuclear JP2NT,significantly attenuated
